Source: PubChem BioAssay AID1508600 (Functional Genomics Laboratory (NCATS/FGL), 2020)
About 3,700 (7%) of roughly 53,000 sequences were called active.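 Rule for the calls: active = gene knockdowns whose robust z-score for IL-1 alpha signal is at least 2 or at most -2, so actives lie on both sides; inactive = the rest.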 This is one part of the list.

assay: Components of the Cytosolic LPS Sensing Pathway: Gene Identification via Genome-wide siRNA Screen; settings: RAW264.7 macrophages, IL-1a HTRF, actives lie on both sides, screened at 100 nM (by protocol), cells primed 5 h with Pam3CSK4 first;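 note: robust z of the log signal after scaling to non-targeting control siRNA wells of the plate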
Method in brief: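 Three distinct siRNAs per gene were tested singly at 100 nM in RAW264.7 macrophages. Following Pam3CSK4 priming and 24 hour LipidA transfection, IL-1a secretion was read by HTRF.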

Row | Sequence | z-score
1 | GGACAAGGAACAGAGCCUUTT against Rnf183 | inactive: -1.27
2 | GGAUGUGGUCUGAAUUACCTT against Prkd1 | inactive: 0.00495
3 | GGUGUUACCCUCCUUAGAGTT against Tmem230 | inactive: -1.03
4 | GGAUUAAUUAAUACUUGGCTT against Rps9 | inactive: 0.986
5 | CGUGCUUACAUAAUGGAAATT against Rnaseh1 | inactive: 0.231
6 | GGAUCAGAAUUCUUCCCAGTT against Pnrc2 | inactive: -0.805
7 | GGACAACACAUUUGUGCUCTT against Sh2b2 | inactive: 0.209
8 | GGAGCUUUCAGCCUAAUUUTT against Cavin3 | inactive: -0.634
9 | GCCUUUGCGCAUAUGCUCUTT against Fancb | inactive: 1.28
10 | GGUAAAUUCUUUAAGGGACTT against Asah1 | inactive: -0.0704
11 | GGAAAACGAAAGAAACGAUTT against Rab15 | inactive: 0.307
12 | GGAAAAGAUUGUCUUGUCCTT against Ralyl | inactive: -0.101
13 | GGAGCAUUGAUAUAUGUCATT against Rragc | inactive: -0.684
14 | CGUGGGUAGGCUUAGAGAUTT against Hgh1 | inactive: -0.696
15 | GGGAUAGAGGCAGUUUUGATT against Rras2 | inactive: -0.593
16 | CGACGCAUUGAGGCAAUCUTT against Camsap3 | inactive: -0.483
17 | GGGAAGGAUUAUGUCAAAUTT against Kit | inactive: 0.328
18 | GGUCAGAAUAUCCUCUUUUTT against Serpina9 | inactive: -0.507
19 | GGCUAAACUCACAACACUCTT against Nlrc5 | inactive: 0.595
20 | GGCUGAACAGAAUUAAGAATT against Surf6 | inactive: 0.042
21 | GCAAGAUGCACCUAGUGACTT against Cish | inactive: -1.55
22 | GCUCGUCUCAGACUUAUUUTT against Il15 | inactive: 1.96

Row | Sequence | z-score
23 | CCGUGUCAUUUGGAGAGCUTT against Ndufaf5 | inactive: -0.248
24 | GCCAUACAGGUAGCUUCUGTT against Tradd | inactive: -0.396
25 | GGUUUACCCAUCUUGGCCATT against Vwf | inactive: -0.501
26 | GGCUGGUGUGACAUUGCCUTT against Pglyrp3 | inactive: 0.197
27 | CCAUUGUUUGUAAUCUAGATT against Elmod3 | inactive: -0.149
28 | GCAACAAAGGCUUUCCCUATT against Trarg1 | inactive: -0.794
29 | GGUGGUGAAGCUAAAGCAGTT against Prkaca | inactive: -1.58
30 | GGCCAAGUGCACCAUCCUATT against Gng13 | inactive: -0.852
31 | GGAAGGUGUCUGUAAUAUATT against Slamf9 | inactive: -0.0451
32 | GGAAACUUUUGGGAGAAAUTT against Itpr2 | inactive: 0.166
33 | CGUGUGAAGAAAAUUGAUGTT against Mmp27 | inactive: 0.568
34 | GGAAACCAUCAAAGUAUGGTT against Ndufa6 | inactive: 1.23
35 | GGCGUGACUUCCACAAGAGTT against Fabp4 | inactive: -0.14
36 | CCACUUGUUGAUCAAGAGATT against Adamts15 | inactive: 0.79
37 | GCCAGCCAUUGUACCAUGATT against Trappc12 | inactive: 1.4
38 | GCACUAAGAAAUGGAUCUATT against Igbp1 | inactive: 0.565
39 | GGAAAGAAGCAGCGGACUUTT against Nme7 | active: 2.29
40 | GGAAAGCUACAGAACCAUUTT against Tm6sf1 | inactive: -0.652
41 | GGGUGGCUUUCUAAUGUUGTT against Olfr362 | inactive: 0.393
42 | GGAAAUACAGCUCGGAGCATT against Eaf2 | inactive: -0.124
43 | CCCAAUGGCACUCUAUAUCTT against Hepacam | inactive: -1.32
44 | GGACCAAAUCCUCUGAUUCTT against Bud13 | active: 2.74

Row | Sequence | z-score
45 | GUGGAAUUCAUGGAUGACATT against Rps28 | inactive: -0.765
46 | GCAGAGCUAGCUGAAUUGCTT against Urb2 | inactive: -0.156
47 | GGUUAACACUAAAUGAAGATT against Cip2a | inactive: 0.153
48 | GGAUUCGCCUUUUCUACCGTT against Hoxb2 | inactive: 0.929
49 | GCCCUCAAUAAAUGCCAUCTT against Pcsk1n | inactive: 1.23
50 | GCGAUCUACGCUUUCAAAGTT against Dennd2a | inactive: 1.13
51 | GGGAAUCUGAUGAAGAUGGTT against Grin3b | inactive: -1.56
52 | CCUACUGUGCAUAGGUCUCTT against Tspan4 | inactive: 1.52
53 | CCGAAUCGUCCUAAACCAATT against Cyp11a1 | inactive: 0.284
54 | GGUCAUUCUAGGCUACAAUTT against Crx | inactive: -0.083
55 | GGUCAACAGAAUGAAAAAUTT against Runx1t1 | inactive: -0.211
56 | CGAUUGCUCUUAACCCUUGTT against Zfp597 | inactive: -0.233
57 | CCAGGGAAUUAAAUUUACATT against Carmil1 | inactive: -0.935
58 | GGAAUCAUUCACAGCAUGUTT against Arhgap15 | inactive: -0.0469
59 | GGAUCUUACAGUCAGAGAGTT against Cdh4 | inactive: 0.164
60 | GGGUAUGUAUUACCUCGAGTT against Erbb3 | inactive: -1.66
61 | GCCGUUGAAAAGGUUGGAUTT against Anp32b | inactive: -0.733
62 | CCUGGAAUCACACAUACCUTT against Abr | inactive: -0.921
63 | CCUUCUAUGCCUCCUACAATT against Wdr93 | inactive: 0.612
64 | GGAAAAAUGACCACAUACUTT against Gucy1b2 | inactive: 0.00512
65 | GCUACACCGAGGACAGUUUTT against Nid2 | inactive: 1.72
66 | CCUGUGAUGUGAUCAUUAATT against Pigr | inactive: 1.37

Row | Sequence | z-score
67 | CGACAUGUCAAAACUCACGTT against Zfp791 | inactive: 1.22
68 | GGAUUCCAAUUUUAUUCCATT against Brca1 | inactive: 1.57
69 | GGCACAGAAAGAGAAAUACTT against Ivd | inactive: 0.00782
70 | CCUAGAUAGGCUUGUAGCCTT against Mylpf | inactive: 1.61
71 | GGUGAAGAGUAAGAUCUUGTT against Gga1 | inactive: -0.0508
72 | GGUGGAAAUUUUCAGAGAATT against 4933411G06Rik | inactive: -0.556
73 | CCACGUGAAGGAGAGAUGATT against Mob2 | inactive: 1.39
74 | GGACGGUCAUGUCUAUGAATT against Pglyrp1 | inactive: -1.01
75 | GGUUUUAAUUGUUCAGACGTT against Lrrtm3 | inactive: 0.35
76 | GCACUUUGGCAUAUUUUCATT against Slc6a15 | inactive: -0.391
77 | GCAUCUGUAAAUCUUUAGCTT against Gpr85 | inactive: 0.866
78 | CGAGAUGAAUUUCUAGUAGTT against Tubgcp3 | inactive: 1.47
79 | AUGAGGAGACUCUUUGCUATT against Olfr1317 | inactive: -0.224
80 | GGAUCUCCUUUUUUUUCAATT against Gabrr1 | inactive: 0.0887
81 | GCAUUUUUCGUUAGGAAAATT against Esco2 | active: 3.13
82 | GGUCUGUAUGAAGACAUUATT against Pdss1 | inactive: -1.16
83 | CCCGUCACAUCUCAUUCCATT against Tpmt | inactive: -0.175
84 | GCCAAGCAUUAAGUGAUAATT against Setmar | active: 2.7
85 | GCCAUUACUUAACUCAUAATT against Zfp943 | inactive: 0.3
86 | GGGACCACAAGUUUAGAACTT against Cep57l1 | inactive: 0.434
87 | GCUGAGACUAAACAUUGUATT against 2610008E11Rik | inactive: -0.717
88 | GUAGAAACUUCUCGUUCACTT against Tcl1b3 | inactive: 0.675

Row | Sequence | z-score
89 | CGCACACACUGAACUUUAATT against Slco1a1 | inactive: -0.0612
90 | GGUGAAGGUGAAACGAUAUTT against Mfap1a | inactive: 0.291
91 | CCUCUCCUUCUUAGACAUGTT against Olfr724 | inactive: 0.654
92 | GCCAUCGUGCGCAUGAUUUTT against Gstz1 | inactive: 0.883
93 | GCUAUCACUUUUCAUUAGATT against G0s2 | inactive: -0.902
94 | CCUACCAGUUCCUAUUUAGTT against Alas2 | inactive: 0.452
95 | GGAUGGUGUUGUGUUUAAATT against Chst2 | inactive: 0.962
96 | CCUUCGAAUCUGAAACCUUTT against Slc27a3 | inactive: -0.973
97 | GGAAAUGGUAAUUUUCAGUTT against Slc25a36 | inactive: -0.242
98 | GGAUUUCUACAGGGUGUAUTT against Trim8 | inactive: -1.19
99 | GCCGUACUUUCUGAGAUUATT against Shq1 | inactive: 0.0585
100 | GGAGCUGAAGAUCAAGGAGTT against Pkn3 | inactive: -0.849
101 | GGGAAAGAAGCAAAACUUUTT against Fyttd1 | inactive: -0.199
102 | GGAGACUCUCACCUAUCAUTT against Doc2g | inactive: -0.458
103 | GGUACAUGCUCAAGUUAUATT against Bmp15 | inactive: -0.963
104 | GGAUCUGACUGAAGAUCACTT against Asgr1 | inactive: 1.85
105 | GGAAGAGGACAACCAGCUCTT against Cd82 | inactive: 0.59
106 | CCCUGAAUACUCUGAGUGGTT against Ucn | inactive: 0.0905
107 | GGCCAUUCAGAAGAUGCAGTT against Snapc2 | inactive: -0.852

Shown comma-delimited: entries from further up.
Row,Sequence,z-score
91,CCUCUCCUUCUUAGACAUGTT against Olfr724,inactive: 0.654
93,GCUAUCACUUUUCAUUAGATT against G0s2,inactive: -0.902
96,CCUUCGAAUCUGAAACCUUTT against Slc27a3,inactive: -0.973
104,GGAUCUGACUGAAGAUCACTT against Asgr1,inactive: 1.85
107,GGCCAUUCAGAAGAUGCAGTT against Snapc2,inactive: -0.852
